± gives the standard deviation of the averaged measurements. Small differences around the control level are noise.
Legend:
Test in all cases: level (log10 ratio to DMSO vehicle control); higher = higher biomarker level / cell amount than vehicle control
[1] = compound: CCOC(=O)CC(=O)C(F)(F)C(F)(F)F [Ethyl pentafluoropropionyl acetate]; conditions: 2200 nM; in DMSO
Method: (§1)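 BioMAP Diversity Plus panel of 12 human primary cell co-culture systems (3C, 4H, LPS, SAg, BT, BF4T, BE3C, CASM3C, HDF3CGF, KF3CT, MyoF, Mphg). Compounds were added 1 h before stimulation and left for 24 h (MyoF 48 h; BT 72 h for soluble read-outs or 6 d for IgG). Biomarkers were read by ELISA, cytotoxicity by SRB, PBMC viability and proliferation by Alamar Blue. Each well value was divided by the mean of 8 DMSO control wells on the same plate and log10 transformed; duplicate blinded samples were tested at 4 concentrations.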

[2] = compound: O=C(O)C(F)(F)C(F)(F)C(F)(F)C(F)(F)C(F)(F)C(F)(F)C(F)(F)F [Ammonium perfluorooctanoate]; conditions: 2200 nM; in DMSO
Method: as §1

Perfluorooctanoic acid = compound: O=C(O)C(F)(F)C(F)(F)C(F)(F)C(F)(F)C(F)(F)C(F)(F)C(F)(F)F [Perfluorooctanoic acid]; conditions: 2200 nM; in DMSO
Method: as §1

[3] = compound: O=C(O)C(F)(F)OC(F)(F)C(F)(F)OC(F)(F)F [Perfluoro-3,6-dioxaheptanoic acid]; conditions: 2200 nM; in DMSO
Method: as §1

[4] = compound: O=C(O)CCC(F)(C(F)(F)F)C(F)(F)F [4,4-bis(Trifluoromethyl)-4-fluoropropanoic acid]; conditions: 2200 nM; in DMSO
Method: as §1

[5] = compound: C=CC(=O)OCC(F)(F)C(F)(F)C(F)(F)C(F)(F)C(F)(F)C(F)(F)C(F)(F)C(F)F [1H,1H,9H-Perfluorononyl acrylate]; conditions: 2200 nM; in DMSO
Method: as §1

Perfluorodecanoic acid = compound: O=C(O)C(F)(F)C(F)(F)C(F)(F)C(F)(F)C(F)(F)C(F)(F)C(F)(F)C(F)(F)C(F)(F)F [Perfluorodecanoic acid]; conditions: in DMSO
Method: as §1

[6] = compound: O=C(O)C(F)(F)OC(F)(F)C(F)(F)OC(F)(F)C(F)(F)OC(F)(F)C(F)(F)C(F)(F)C(F)(F)F [Perfluoro-3,6,9-trioxatridecanoic acid]; conditions: 2200 nM; in DMSO
Method: as §1

Perfluorooctanamidine = compound: N=C(N)C(F)(F)C(F)(F)C(F)(F)C(F)(F)C(F)(F)C(F)(F)C(F)(F)F [Perfluorooctanamidine]; conditions: in DMSO
Method: as §1

[7] = compound: FC(F)(F)C(F)(F)C(F)(F)C(F)(F)C(F)(F)C(F)(F)C(F)(F)C(F)(F)CCS [2-(Perfluorooctyl)ethanthiol]; conditions: in DMSO
Method: as §1

[8] = compound: O=C(CC(=O)C(F)(F)C(F)(F)C(F)(F)F)c1cccs1 [(Perfluorobutyryl)-2-thenoylmethane]; conditions: 2200 nM; in DMSO
Method: as §1

[9] = compound: OCC(F)(F)C(F)(F)C(F)(F)C(F)(F)C(F)(F)C(F)(F)C(F)(F)C(F)(F)CO [1H,1H,10H,10H-Perfluorodecane-1,10-diol]; conditions: 2200 nM; in DMSO
Method: as §1

[10] = compound: OCC(F)(F)OC(F)(F)C(F)(F)OC(F)(F)C(F)(F)OC(F)(F)CO [1H,1H,11H,11H-Perfluorotetraethylene glycol]; conditions: 2200 nM; in DMSO
Method: as §1

Perfluorononanoic acid = compound: O=C(O)C(F)(F)C(F)(F)C(F)(F)C(F)(F)C(F)(F)C(F)(F)C(F)(F)C(F)(F)F [Perfluorononanoic acid]; conditions: 2200 nM; in DMSO
Method: as §1

Test System | level (log10) [1] | level (log10) [2] | level (log10) (Perfluorooctanoic acid) | level (log10) [3] | level (log10) [4] | level (log10) [5] | level (log10) (Perfluorodecanoic acid; 2200 nM) | level (log10) (Perfluorodecanoic acid; 6700 nM) | level (log10) (Perfluorodecanoic acid; 20000 nM) | level (log10) [6] | level (log10) (Perfluorooctanamidine; 2200 nM) | level (log10) (Perfluorooctanamidine; 6700 nM) | level (log10) (Perfluorooctanamidine; 20000 nM) | level (log10) (Perfluorooctanamidine; 60000 nM) | level (log10) ([7]; 740 nM) | level (log10) ([7]; 2200 nM) | level (log10) [8] | level (log10) [9] | level (log10) [10] | level (log10) (Perfluorononanoic acid)
CASM3C:Proliferation | 0.0035 ± 0.1 | -0.0385 ± 0.0035 | -0.001 ± 0.023 | -0.01 ± 0.051 | -0.0185 ± 0.036 | 0.011 ± 0.054 | 0.0345 ± 0.035 | 0.049 ± 0.0028 | 0.0205 ± 0.035 | -0.0165 ± 0.013 | 0.0015 ± 0.0092 | 0.0185 ± 0.0078 | 0.0085 ± 0.0035 | -0.062 | 0.0165 ± 0.022 | 0.0075 ± 0.032 | -0.0975 ± 0.037 | -0.0515 ± 0.029 | -0.0775 ± 0.087 | 0.026 ± 0.0099
3C:CXCL9/MIG | -0.0055 ± 0.011 | -0.0035 ± 0.019 | 0.007 ± 0.017 | -0.0045 ± 0.0092 | 0.0105 ± 0.0078 | -0.003 ± 0.0099 | -0.006 ± 0.014 | 0.002 | 0.0005 ± 0.0064 | -0.007 ± 0.016 | 0.009 ± 0.0028 | 0.007 ± 0.0071 | -0.0165 ± 0.0035 | 0.005 | -0.0185 ± 0.00071 | 0.0015 ± 0.013 | -0.009 ± 0.018 | -0.003 ± 0.0042 | -0.007 ± 0.023 | -0.004 ± 0.0014
HDF3CGF:CXCL10/IP-10 | -0.0155 ± 0.0078 | -0.016 ± 0.0071 | 0.015 ± 0.018 | 0.0115 ± 0.018 | -0.019 ± 0.044 | 0.005 ± 0.0042 | -0.0475 ± 0.025 | -0.0745 ± 0.015 | -0.427 ± 0.019 | -0.0215 ± 0.012 | 0.012 ± 0.0042 | 0.024 ± 0.014 | -0.004 ± 0.034 | -0.122 | -0.0105 ± 0.036 | -0.0215 ± 0.029 | 0.0095 ± 0.0078 | 0.003 ± 0.016 | -0.0115 ± 0.0078 | -0.003 ± 0.013
MyoF:bFGF | 0.008 ± 0.013 | 0.0055 ± 0.011 | -0.0045 ± 0.0021 | 0.0015 ± 0.064 | 0.0065 ± 0.022 | -0.007 | 0.0015 ± 0.013 | 0.001 ± 0.0042 | 0.0055 ± 0.0035 | -0.003 ± 0.011 | 0.003 ± 0.0085 | -0.0085 ± 0.032 | -0.0115 ± 0.03 | 0.044 | 0.0065 ± 0.0092 | 0.0195 ± 0.025 | 0.01 ± 0.013 | 0.0025 ± 0.0092 | -0.009 ± 0.0071 | -0.0155 ± 0.022
KF3CT:IL-1alpha | 0.014 ± 0.034 | -0.01 ± 0.0099 | 0.0035 ± 0.0078 | -0.0345 ± 0.06 | -0.045 ± 0.0028 | 0.017 ± 0.069 | -0.018 ± 0.016 | -0.0535 ± 0.0035 | -0.068 ± 0.0042 | -0.03 ± 0.027 | -0.0015 ± 0.0078 | -0.005 ± 0.04 | 0.0115 ± 0.011 | 0.03 | -0.0165 ± 0.05 | -0.012 ± 0.03 | 0.0035 ± 0.028 | 0.0225 ± 0.047 | 0.0295 ± 0.06 | -0.035 ± 0.076
BF4T:MMP-9 | -0.009 ± 0.065 | 0.0175 ± 0.0064 | -0.0015 ± 0.033 | -0.0325 ± 0.033 | 0.0435 ± 0.022 | 0.0255 ± 0.037 | -0.013 ± 0.013 | -0.025 ± 0.0057 | -0.282 ± 0.023 | -0.019 ± 0.045 | 0.0115 ± 0.019 | -0.006 ± 0.0057 | -0.0115 ± 0.013 | 0.053 | -0.0125 ± 0.0021 | -0.051 ± 0.018 | -0.011 ± 0.03 | 0.002 | 0.028 ± 0.0057 | -0.0205 ± 0.054
CASM3C:HLA-DR | -0.0175 ± 0.035 | 0.019 ± 0.0042 | 0.0025 ± 0.04 | 0.0015 ± 0.019 | -0.0025 ± 0.043 | 0.075 ± 0.02 | 0.0055 ± 0.021 | 0 | 0.006 ± 0.014 | 0.007 ± 0.0028 | 0.0205 ± 0.083 | -0.0335 ± 0.016 | -0.0655 ± 0.011 | -0.022 | 0.001 ± 0.014 | -0.032 | 0.0035 ± 0.025 | 0.004 ± 0.016 | -0.016 ± 0.013 | -0.0445 ± 0.013
lMphg:M-CSF | 0.0045 ± 0.028 | 0.0215 ± 0.019 | -0.008 ± 0.0085 | -0.0355 ± 0.026 | -0.0125 ± 0.039 | -0.0365 ± 0.0092 | -0.014 ± 0.03 | 0.019 ± 0.021 | 0.0105 ± 0.037 | 0.013 ± 0.035 | -0.005 ± 0.045 | -0.0155 ± 0.016 | -0.0015 ± 0.0021 | -0.001 | 0.014 ± 0.016 | -0.0035 ± 0.0021 | 0.0185 ± 0.018 | 0.01 ± 0.062 | -0.006 ± 0.024 | -0.0415 ± 0.011
lMphg:CD106/VCAM-1 | 0.01 ± 0.017 | 0.009 ± 0.018 | 0.0055 ± 0.0064 | -0.002 ± 0.044 | -0.01 ± 0.013 | -0.02 ± 0.04 | -0.0135 ± 0.015 | 0.004 ± 0.0014 | -0.0145 ± 0.053 | -0.005 ± 0.0085 | -0.0015 ± 0.018 | -0.006 ± 0.0028 | -0.008 ± 0.0057 | -0.08 | 0.002 ± 0.011 | 0.0025 ± 0.0035 | 0.0065 ± 0.0035 | -0.002 | 0.0005 ± 0.013 | -0.0215 ± 0.011
4H:CD62P/P-selectin | 0.017 ± 0.013 | 0.0195 ± 0.073 | 0.001 ± 0.018 | -0.0085 ± 0.023 | -0.005 ± 0.025 | -0.007 ± 0.068 | 0.0805 ± 0.0021 | 0.087 ± 0.0071 | 0.093 ± 0.033 | -0.0335 ± 0.05 | -0.011 ± 0.017 | -0.0165 ± 0.012 | -0.007 ± 0.0085 | -0.032 | 0.0055 ± 0.043 | -0.017 ± 0.044 | -0.0085 ± 0.071 | -0.037 ± 0.0071 | 0.0225 ± 0.059 | -0.0425 ± 0.067
CASM3C:Serum Amyloid A | 0.0275 ± 0.035 | 0 ± 0.0099 | 0.0085 ± 0.0064 | -0.0475 ± 0.011 | 0.0275 ± 0.037 | -0.069 ± 0.025 | 0.019 ± 0.0042 | 0.035 ± 0.031 | 0.0345 ± 0.026 | -0.015 ± 0.0014 | 0.0365 ± 0.046 | 0.001 ± 0.0014 | -0.0085 ± 0.018 | 0.053 | 0.0255 ± 0.026 | -0.0025 ± 0.019 | 0.039 ± 0.017 | 0.0005 ± 0.0035 | -0.0105 ± 0.0035 | 0.0045 ± 0.054
3C:CD62E/E-Selectin | -0.011 ± 0.016 | 0.013 ± 0.011 | 0.0045 ± 0.026 | 0 ± 0.03 | -0.0135 ± 0.036 | 0.015 ± 0.011 | 0.0025 ± 0.00071 | -0.004 ± 0.0085 | 0.0025 ± 0.019 | -0.008 ± 0.016 | -0.006 ± 0.024 | -0.0045 ± 0.023 | -0.005 ± 0.027 | -0.039 | -0.0065 ± 0.0092 | -0.0295 ± 0.013 | 0 ± 0.035 | -0.0105 ± 0.0035 | -0.0035 ± 0.028 | -0.002 ± 0.02

Copied from the list:
HDF3CGF:CXCL10/IP-10 | level (log10) [9]: 0.003 ± 0.016
CASM3C:Proliferation | level (log10) [5]: 0.011 ± 0.054

From the supplement of paper PMC10331698
